Laboratory results: patent US20050042308A1, “Pharmaceutical composition having cholagogic and litholytic effect and its preparation method” (priority 2001, published 2005)

Tested on: foot-licking response of mouse
Test: Foot-licking response of mouse caused by 2.5% formaldehyde
Type: in vivo
Conditions: Morphine 10 (mg) SC, Eulektrol 0.15 ml/kg

CN1CC[C@]23c4c5ccc(O)c4O[C@H]2[C@@H](O)C=C[C@H]3[C@H]1C5.Cl [Morphine, morphine hydrochloric acid]
Mice foot-licking counts after SC 2.5% formaldehyde (15 minutes): 1.2860 ± 2.630 Number
Inhibition rate of foot-licking counts: more than 98%
